This note sets out measurements from article PMC10404622.

Amino acid sequences for entries named in this document (tags omitted). A change or cut given only in a name is not applied to a line headed by its entry.
UniProt P09012: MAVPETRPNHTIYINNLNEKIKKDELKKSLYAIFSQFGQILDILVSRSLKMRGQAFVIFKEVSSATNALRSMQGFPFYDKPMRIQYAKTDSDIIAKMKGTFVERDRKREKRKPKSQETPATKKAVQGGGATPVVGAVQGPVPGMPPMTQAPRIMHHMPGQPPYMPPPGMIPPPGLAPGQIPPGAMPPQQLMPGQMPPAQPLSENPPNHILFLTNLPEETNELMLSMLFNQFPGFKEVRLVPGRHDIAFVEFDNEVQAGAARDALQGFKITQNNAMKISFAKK
UniProt P09234: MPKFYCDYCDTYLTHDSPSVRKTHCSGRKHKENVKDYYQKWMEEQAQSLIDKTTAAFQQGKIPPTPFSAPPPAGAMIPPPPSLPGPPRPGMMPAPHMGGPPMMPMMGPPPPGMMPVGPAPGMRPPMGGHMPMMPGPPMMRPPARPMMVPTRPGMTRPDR
UniProt P08621: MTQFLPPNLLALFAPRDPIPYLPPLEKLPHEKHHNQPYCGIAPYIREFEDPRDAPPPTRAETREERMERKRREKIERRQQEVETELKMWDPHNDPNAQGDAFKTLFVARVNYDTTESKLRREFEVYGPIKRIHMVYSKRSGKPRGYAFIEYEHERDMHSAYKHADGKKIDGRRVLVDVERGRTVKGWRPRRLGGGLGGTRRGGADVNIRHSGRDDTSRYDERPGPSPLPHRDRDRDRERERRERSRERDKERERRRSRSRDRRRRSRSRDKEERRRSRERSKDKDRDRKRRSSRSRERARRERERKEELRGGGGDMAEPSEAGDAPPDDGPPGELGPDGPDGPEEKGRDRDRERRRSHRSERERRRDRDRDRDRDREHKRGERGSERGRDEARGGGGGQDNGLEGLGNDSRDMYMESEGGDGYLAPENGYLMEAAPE

Results are given in words; binding and its absence hold for the method and conditions named. In cells and extracts the contact can be indirect. Some binding calls cover weakened binding; strength is not graded here.

The test has as its target U1A (human (endogenous in HeLa)) (UniProt P09012). Description: co-IP; anti-U1A antibody (control IgG beside it); HeLa nuclear extract in the presence of control or U1 AMO (Fig. 1B), and nuclear extract of HeLa cells transfected with control or U1 AMO (Fig. S2A); Western blot for U1-70K, U1A, U1C. Background: Immunoblotting shows a protein as a band on a membrane.

As to U1C (from UniProt P09234 1-159), the binding result is on record as “binds”. For the substance U1-70K (from UniProt P08621 1-437), the binding entry is reported as “binds”.
